# Experimental data reported in publication PMC8468827.
# Sequences of proteins named here, by UniProt entry; tags and fusion partners are left off.
# UniProt Q9VQ93: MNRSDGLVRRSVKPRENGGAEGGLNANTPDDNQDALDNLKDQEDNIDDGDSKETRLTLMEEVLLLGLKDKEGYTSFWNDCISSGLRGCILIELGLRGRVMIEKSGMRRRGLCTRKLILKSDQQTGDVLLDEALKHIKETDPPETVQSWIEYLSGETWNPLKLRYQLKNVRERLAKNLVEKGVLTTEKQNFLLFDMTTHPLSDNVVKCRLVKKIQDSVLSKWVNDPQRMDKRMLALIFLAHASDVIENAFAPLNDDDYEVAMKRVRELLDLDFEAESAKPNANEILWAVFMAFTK
# B1: αCOP (protein, UniProt Q9W0B8 1-1234)
# chain: MLTNFESKSARVKGLSFHPKRPWILVSLHSGVIQLWDYRMHTLLEKFDEHDGPVRGVAFHQQMPLFVSGGDDYKIKVWNYKQRRCIFTLLAHLDYVRTVAFHHEYPWILSASDDQTIRIWNWQSRNCICVLTGHNHYVMCAQFHPTEDQIVSASLDQTVRVWDISGLRKKNVAPGPGGLDDHLKGHPGATDLFGQADAVVKHVLEGHDRGVNWASFHPTLPLIVSGADDRLVKLWRMNEYKAWEVDTCRGHYNNVSSVLFHPRQDLILSNGEDRSIRVWDMTKRQCLFTFRRDNERFWILTAHPTLNLFAAGHDGGMVVFKLERERPAYAVHGNILYYVKERFLRKLDFTTTKDTVVMQLRPGKSPVYSMSYNPALNAVLICTRTNNLENSTYDLCQIPKDTESQSESDSKRSSGITAIWVARNRFAVLDRNQQLVIKNFKNEVTKKLPTFCEEIFYAGTGMLLIRDPEFVTLYEVQRLVSVGSIKLAKCRYVVWSPDMSLVALLCKHSVTICDRRLQYLCTVQENCRVKSGAWDESGVFIYTTSNHIKYAITNGDHGIIRTLDLPIYLTRVKGNQVFCLDRECRTRVLHIDPTEYKFKLALIQRKYDEVLHMVRNARLVGQSIIAYLQQKGYPEVALHFVKDEKTRFGLALECGNIEIALEAAKALDDKDCWDRLGQSALLQGNHQVVEMCYQRTKNFDKLSFLYLITGNLEKLKKMNKIAEIRKDVSAQYQGALLLGDVKERVNILKNCGQLSLAYLTAATHGFDELTESLGESITSQGNSLPEVNPNAQLLQPPVPIQQLETNWPLLSVSKGFFEGAMVTRAGSSATARQALNINADAALLDEHNGGGDGWGADADLGLDEDGDDEMHDALSNDGDGGAGGEEGAGWDVGDDDLVVPEELASKIKASALDSNYYAAPNKGLSPAQQWANNSPLVLDHVKAGSFETAFRLLHDQLGVVNFQPFKTLFLQNYACSRTSYTANPNLQSLSGYPLRNYSETNIKLQRPAVGIKLNDLVARLQAGYQLTTSGKFSEAVEKFHSILISIPLLVVDTKLDAAEAQQLLRICAEYIVGLKMETVRKGMPKSTLEEQKRLCEMAAYFTHCKLQPVHQILTLRTALNMFFKLKNYKTAASFARRLLELAPRPDVAQQVRKILQACEVNPVDEHQLQYEEFNPFTICGISWKPLYRGKPEVTCPFCSSSFDPQFKGNLCTVCEVSQIGKDSIGLRISNLQFR
# B2: Slh (protein, UniProt Q24179 1-639)
# chain: MLTLRERQINAIKQMLNLNSQQPKALAAEPVWKILIYDRVGQDIISPIISIKELRELGVTLHVQLHSDRDSIPDVPAIYFCLPTDENLDRIQQDFSSGLYDVYHLNFLAPITRSKIENLAAAALHAGCVANIHRVYDQYVNFISLEDDFFILKHQQSDQLSYYAINRANTRDEEMEALMDSIVDSLFALFVTLGNVPIIRCPRNSAAEMVARKLEKKLRENLWDARANLFHMDATQAGGGVFSFQRPVLLLLDRNMDLATPLHHTWSYQALVHDVLDLGLNLVYVEDETASAGARKKPKACDLDRNDRFWMTHKGSPFPTVAEAIQEELESYRNSEEEIKRLKTSMGIEGESDIAFSLVNDTTARLTNAVNSLPQLMEKKRLIDMHTKIATAILNFIKARRLDSFFEIEEKVMSKQTLDRPLLDLLRDGEFGQAEDKLRLYIIYFICAQQLPESEQERLKEALQAAGCDLTALAYVQRWKGIMNRSPSISQATQYEGGGTKTVSMFTKLVSQGSSFVMEGVKNLVVKRHNLPVTKITEQVMECRSNAETDDYLYLDPKLLKGGEVLPKNRAPFQDAVVFMVGGGNYIEYQNLVDFIKQKQTSNVQRRIIYGASTLTNARQFLKELSALGGEIQSPTATS
# B3: εCOP (protein, UniProt Q9Y0Y5 1-306)
# chain: MSRQQNEEDTNSVLFDARNEYYIGNFMGSINFVLPEQGTAGPELLSYMYLSYLAIDSGRIVASDIKEGNSTPLQALRLVHEAFEQPSRTEELLEKLTDKVAGEEDETNIWHLATAIVYCHDGQFENALKILHGSTNLESMALSVQCLLRLQRVDLAKQLVAKMQEISDDATLTQLAQAWVALAQGTEQMQDAFHIYQEFCEKFKPTPALLNGQAVVHLGLERYEEADSVLRESLLKKHNDYDTLINLMVHAHLTGKPTEAITRNLEQLRQFYPKSDFVTDLDKKSAEFDRLCLQYDVEGGEKLLAV
# Biological target: dGOLPH3-mRFP (Drosophila) (UniProt Q9VQ93)
# Assay: affinity purification with mass spectrometry; RFP-trap beads on lysate of 3000 adult testes expressing dGOLPH3-RFP (RFP alone as control); lysis buffer 25 mM Tris-HCl pH 7.4, 150 mM NaCl, 1 mM EDTA, 1% NP-40; washes at 4 °C; nanoLC-MS/MS
row,binding,Binder
1,binds,B1
2,binds,B2
3,binds,B3

# Results are given in words; binding and its absence hold for the method and conditions named. Binding seen in cells or lysates may run through a third protein. These calls come from enrichment with a bait or labelling near it, and not all partners need be listed.
